Results: PMC4619689
These are yes or no findings as the source states them, for the method shown. In cells and extracts the contact can be indirect. Some binding calls cover weakened binding; strength is not graded here. Sequences can lack the tags named with a protein. One block for each molecule: values may come before it.

By UniProt entry, the sequences of proteins in these tests, tags left out. Where a name states a change or a piece, a line headed by the entry shows the natural chain unless it says otherwise.
UniProt P09017: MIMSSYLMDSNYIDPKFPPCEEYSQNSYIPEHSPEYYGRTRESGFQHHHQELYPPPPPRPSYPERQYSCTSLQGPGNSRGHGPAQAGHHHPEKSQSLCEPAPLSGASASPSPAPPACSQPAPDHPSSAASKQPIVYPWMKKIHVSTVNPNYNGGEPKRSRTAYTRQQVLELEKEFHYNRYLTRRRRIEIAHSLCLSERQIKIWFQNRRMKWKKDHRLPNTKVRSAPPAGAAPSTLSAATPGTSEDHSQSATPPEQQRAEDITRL
UniProt P31245: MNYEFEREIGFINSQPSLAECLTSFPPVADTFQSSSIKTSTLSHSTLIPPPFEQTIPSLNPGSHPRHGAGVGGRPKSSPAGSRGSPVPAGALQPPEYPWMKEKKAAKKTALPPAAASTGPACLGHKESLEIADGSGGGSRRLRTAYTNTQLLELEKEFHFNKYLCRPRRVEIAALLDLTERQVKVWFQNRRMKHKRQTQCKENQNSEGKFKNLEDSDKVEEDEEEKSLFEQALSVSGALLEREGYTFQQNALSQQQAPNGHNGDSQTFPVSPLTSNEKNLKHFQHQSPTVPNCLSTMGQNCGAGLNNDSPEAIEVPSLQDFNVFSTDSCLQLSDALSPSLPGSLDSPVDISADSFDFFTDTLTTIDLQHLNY
UniProt O43364: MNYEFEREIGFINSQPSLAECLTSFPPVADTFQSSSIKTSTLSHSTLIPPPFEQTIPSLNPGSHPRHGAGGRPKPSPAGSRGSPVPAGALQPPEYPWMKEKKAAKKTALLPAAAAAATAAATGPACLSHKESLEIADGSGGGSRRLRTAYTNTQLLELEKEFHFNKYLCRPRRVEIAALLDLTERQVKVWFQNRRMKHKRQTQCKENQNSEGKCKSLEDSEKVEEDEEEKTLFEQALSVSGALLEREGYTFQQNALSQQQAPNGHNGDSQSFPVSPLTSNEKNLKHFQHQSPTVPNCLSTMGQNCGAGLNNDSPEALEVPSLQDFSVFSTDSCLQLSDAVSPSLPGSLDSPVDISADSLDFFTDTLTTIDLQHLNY
UniProt P14652: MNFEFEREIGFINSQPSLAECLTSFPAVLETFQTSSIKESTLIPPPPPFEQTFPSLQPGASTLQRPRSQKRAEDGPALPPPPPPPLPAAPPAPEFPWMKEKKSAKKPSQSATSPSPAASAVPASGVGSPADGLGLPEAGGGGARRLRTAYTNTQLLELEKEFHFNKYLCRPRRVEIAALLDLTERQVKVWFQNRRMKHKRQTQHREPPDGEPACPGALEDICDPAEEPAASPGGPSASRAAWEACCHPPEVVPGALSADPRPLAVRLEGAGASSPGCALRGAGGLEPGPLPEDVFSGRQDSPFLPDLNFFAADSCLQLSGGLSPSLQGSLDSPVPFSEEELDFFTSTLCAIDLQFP
UniProt P14653: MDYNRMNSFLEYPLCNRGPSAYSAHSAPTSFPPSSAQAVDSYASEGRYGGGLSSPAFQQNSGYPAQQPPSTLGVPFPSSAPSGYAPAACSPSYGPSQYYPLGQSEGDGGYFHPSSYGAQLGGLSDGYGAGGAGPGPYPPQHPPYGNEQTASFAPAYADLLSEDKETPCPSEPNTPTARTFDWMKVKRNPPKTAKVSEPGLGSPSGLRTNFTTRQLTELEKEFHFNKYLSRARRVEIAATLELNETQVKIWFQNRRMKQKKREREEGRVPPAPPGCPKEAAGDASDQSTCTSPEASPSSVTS
UniProt P09067: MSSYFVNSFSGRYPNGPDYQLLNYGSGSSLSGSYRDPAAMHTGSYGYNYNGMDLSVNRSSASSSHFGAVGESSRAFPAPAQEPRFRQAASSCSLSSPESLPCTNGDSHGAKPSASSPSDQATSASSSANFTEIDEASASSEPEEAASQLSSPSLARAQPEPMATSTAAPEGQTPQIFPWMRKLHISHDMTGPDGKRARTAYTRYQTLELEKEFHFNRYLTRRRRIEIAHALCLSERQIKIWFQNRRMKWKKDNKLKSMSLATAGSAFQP
UniProt O43365: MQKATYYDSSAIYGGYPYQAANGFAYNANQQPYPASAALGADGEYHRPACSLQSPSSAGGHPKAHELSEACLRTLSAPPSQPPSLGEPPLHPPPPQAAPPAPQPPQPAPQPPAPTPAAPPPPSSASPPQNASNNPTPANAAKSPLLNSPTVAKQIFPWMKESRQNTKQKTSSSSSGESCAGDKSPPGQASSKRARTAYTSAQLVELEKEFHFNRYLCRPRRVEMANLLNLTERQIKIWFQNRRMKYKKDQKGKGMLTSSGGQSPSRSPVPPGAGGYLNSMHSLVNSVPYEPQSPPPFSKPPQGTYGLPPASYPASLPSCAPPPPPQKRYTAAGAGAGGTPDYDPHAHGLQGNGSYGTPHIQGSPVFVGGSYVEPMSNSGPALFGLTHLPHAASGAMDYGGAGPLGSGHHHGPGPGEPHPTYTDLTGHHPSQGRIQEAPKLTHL
UniProt P46527: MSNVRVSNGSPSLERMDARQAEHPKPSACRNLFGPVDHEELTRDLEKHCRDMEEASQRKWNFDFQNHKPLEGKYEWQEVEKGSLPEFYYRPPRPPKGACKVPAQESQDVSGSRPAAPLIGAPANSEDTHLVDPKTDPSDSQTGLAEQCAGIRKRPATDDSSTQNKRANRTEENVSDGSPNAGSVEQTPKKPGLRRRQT
UniProt P28358: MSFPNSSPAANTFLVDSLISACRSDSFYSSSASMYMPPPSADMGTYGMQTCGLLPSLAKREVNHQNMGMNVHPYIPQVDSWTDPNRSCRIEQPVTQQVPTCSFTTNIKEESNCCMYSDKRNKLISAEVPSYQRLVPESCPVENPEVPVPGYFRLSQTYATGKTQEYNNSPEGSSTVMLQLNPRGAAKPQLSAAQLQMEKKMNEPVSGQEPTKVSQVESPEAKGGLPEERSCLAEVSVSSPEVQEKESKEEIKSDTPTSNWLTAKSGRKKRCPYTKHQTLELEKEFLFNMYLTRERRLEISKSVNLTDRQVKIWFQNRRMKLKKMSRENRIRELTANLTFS
UniProt P49639: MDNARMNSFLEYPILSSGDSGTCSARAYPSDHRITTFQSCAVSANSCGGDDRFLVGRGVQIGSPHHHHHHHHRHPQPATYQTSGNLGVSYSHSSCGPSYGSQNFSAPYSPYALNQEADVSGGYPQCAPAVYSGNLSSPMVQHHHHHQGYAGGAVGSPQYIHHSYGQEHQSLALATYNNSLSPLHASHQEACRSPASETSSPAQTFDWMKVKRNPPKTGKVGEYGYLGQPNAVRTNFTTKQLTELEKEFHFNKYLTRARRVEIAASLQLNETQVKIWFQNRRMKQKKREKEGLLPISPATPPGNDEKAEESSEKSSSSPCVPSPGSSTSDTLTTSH
UniProt O43248: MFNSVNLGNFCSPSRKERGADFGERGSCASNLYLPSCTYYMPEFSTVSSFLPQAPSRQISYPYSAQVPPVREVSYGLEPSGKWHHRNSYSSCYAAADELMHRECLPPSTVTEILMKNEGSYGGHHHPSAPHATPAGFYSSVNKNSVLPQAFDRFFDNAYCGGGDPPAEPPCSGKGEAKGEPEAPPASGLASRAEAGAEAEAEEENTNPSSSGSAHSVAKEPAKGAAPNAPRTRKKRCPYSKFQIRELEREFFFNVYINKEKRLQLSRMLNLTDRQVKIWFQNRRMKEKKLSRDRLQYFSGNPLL

Tests used:
Assay in all cases: split reporter; COS-7 cells on coverslips transfected with pExp-VN173 and pExp-VC155 fusion vectors (500 ng each), fixed 24 to 31 h after transfection. Where indicated the cells were treated with the proteasome inhibitor MG132. Counted positive at 3 times or more the fluorescence of the 3 control conditions.
[1] = target: T1, RCHY1 (human), BiFC fusion (human) (UniProt Q96PM5)
T1 sequence: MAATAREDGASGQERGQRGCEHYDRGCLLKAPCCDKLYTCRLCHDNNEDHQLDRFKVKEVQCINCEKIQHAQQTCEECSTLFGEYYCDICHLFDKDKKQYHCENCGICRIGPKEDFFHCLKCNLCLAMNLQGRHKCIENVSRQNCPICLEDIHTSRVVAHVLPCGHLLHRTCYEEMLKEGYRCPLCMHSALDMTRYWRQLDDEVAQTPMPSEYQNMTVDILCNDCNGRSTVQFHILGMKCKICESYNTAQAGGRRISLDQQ

[2] = target: T2, Rchy1 (mouse), BiFC fusion (mouse) (UniProt Q9CR50)
T2 sequence: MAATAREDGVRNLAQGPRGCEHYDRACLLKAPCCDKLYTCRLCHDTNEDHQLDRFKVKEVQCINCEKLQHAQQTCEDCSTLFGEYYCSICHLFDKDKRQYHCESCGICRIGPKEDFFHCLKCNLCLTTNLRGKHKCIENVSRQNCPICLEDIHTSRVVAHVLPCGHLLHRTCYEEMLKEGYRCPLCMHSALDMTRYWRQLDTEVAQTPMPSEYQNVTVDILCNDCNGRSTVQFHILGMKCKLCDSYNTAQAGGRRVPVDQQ

[3] = target: T3, RCHY1 (human), BiFC fusion (human), Q96PM5; settings: remark: other sources report otherwise
T3 chain: T1 sequence

Molecule: HOXC4 (human), BiFC fusion (from UniProt P09017 1-264)
binding [1]: binds

Molecule: Hoxa2^HD [139–198], BiFC fusion (from UniProt P31245 139-198) (domain or fragment)
binding [1]: binds

Molecule: HOXA2 (human), BiFC fusion (from UniProt O43364 1-376)
binding [1]: binds

Molecule: HOXB2 (human), BiFC fusion (from UniProt P14652 1-356)
binding [1]: binds

Molecule: HOXB1 (human), BiFC fusion (from UniProt P14653 1-301)
binding [1]: binds

Molecule: HOXB5 (human), BiFC fusion (from UniProt P09067 1-269)
binding [1]: binds

Molecule: Hoxa2^ΔC [1–198], BiFC fusion (from UniProt P31245 1-198) (domain or fragment)
binding [1]: binds

Molecule: Hoxa2^ΔN [138–372], BiFC fusion (from UniProt P31245 138-372) (domain or fragment)
binding [1]: binds

Molecule: HOXA3 (human), BiFC fusion (from UniProt O43365 1-443)
binding [1]: binds

Next, values leading:

binding [1]: binds
Molecule: p27^Kip1, BiFC fusion (from UniProt P46527 1-198)

binding [2]: binds
Molecule: Hoxa2 (mouse), BiFC fusion (from UniProt P31245 1-372)

binding [1]: binds
Molecule: Hoxa2^ΔHD [δ139–198], BiFC fusion (from UniProt P31245 1-372)

binding [1]: binds
Molecule: HOXD10 (human), BiFC fusion (from UniProt P28358 1-340)

binding [1]: binds
Molecule: HOXA1 (human), BiFC fusion (from UniProt P49639 1-335)

binding [1]: binds
Molecule: HOXC11 (human), BiFC fusion (from UniProt O43248 1-304)

binding [3]: binds
B1: RCHY1 (human), BiFC fusion, Q96PM5 1-261 (protein)
chain: T1 sequence
